# Some of the results follow. Shown are side measurements of this screen, not its main read-out; they come without a call. Compounds called inactive in the main read-out are mostly missing here. Words in brackets tell the shape of the fitted curve; partial curves, single points and poor fits give uncertain potencies.
# Assay: qHTS Assay for Lipid Storage Modulators in Drosophila S3 Cells;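 as to cell number change: cells counted by Cell Tracker Red CMTPX staining in the red channel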
# Details: BODIPY lipid droplet fluorescence, 18-24 h; for cell number change: measured here: cell count max response, cells fed with added oleic acid
# From the text: NIH Molecular Libraries Probe Production Centers Network [MLPCN] NIH Chemical Genomics Center [NCGC] MLPCN Grant: 1 R03 MH085686-01 Assay Submitter (PI): Beller, Mathias; Max-Planck-Institut fur Biophysikalische Chemie NCGC Assay Overview: Storing lipids as a reservoir for energy or the anabolism of elementary metabolites is a common feature of probably all cells and is conserved from bacteria to humans. The universal cellular lipid storage organelle is the so-called lipid storage droplet (LD). Although ubiquitous, LDs share a simple structure composed of a hydrophobic core that harbors the storage lipids, which is shielded by a droplet-specific phospholipid monolayer to which proteins are attached. The current model of LD biogenesis involves an incorporation of the lipid core into the membrane leaflets of the endoplasmic reticulum (ER) followed by a subsequent budding-like maturation of a LD, which ultimately pinches off. Once released, LD volume can increase by localized lipogenesis or fusion of existing droplet. Storage lipids are re-mobilized enzymatically by lipase activity. Lipase regulation in the adipocyte is heavily studied and involves multiple components including catecholamine signaling, the LD-associated proteins Perilipin and comparative gene identification (CGI-58) and at least two lipases named hormone sensitive lipase (HSL) and adipocyte triglyceride lipase (ATGL). LD regulation outside of the adipocyte is poorly understood and only few components are known. However, there is an urgent need to learn more about ectopic fat depots as mislocalized storage of lipids, for example in the liver or muscle, is an eminent health problem associated with insulin resistance or the metabolic syndrome. We developed a laser-scanning cytometer assay to enable 1,536-well screening and combined the results of the small molecules screen with an RNAi database based on lipid storage.
# Triacsin C (Sigma-Aldrich T-4540), an inhibitor of long-chain fatty acyl CoA synthetase that blocks synthesis of triglycerides, was used as a positive control for lipid under-storage. A total of 23 nL of compound solution of different concentrations were transferred to the assay plates using a Kalypsys pin tool equipped with a 1,536-pin array containing 10-nL slotted pins (FP1S10, 0.457-mm diameter, 50.8 mm long; V&P Scientific). One microliter of oleic acid (400 uM) was added, and the plate was lidded with stainless steel rubber gasket lined lids containing pinholes. […] Fluorescence was detected by excitation of the fluorophores with a 488-nm laser on an Acumen Explorer (TTP Lab Tech). The total intensity in channel 2 (500-530 nm) reflected lipid droplet accumulation. Cells were detected using channel 3 (575-640 nm) with 5-um width and 100-um depth filters. The ratio of the number of objects in PMT channel 2 over the number of objects in PMT channel 3 was also calculated. Percent activity was computed relative to an internal control (100% inhibited lipid droplet deposition due to the presence of 20 uM Triacsin C), which was added to 32 wells/plate.
# [1] = measured here: cell number channel AC50, cells fed with added oleic acid
# [2] = measured here: lipid fluorescence (Fed channel) AC50, cells fed with added oleic acid
SMILES,cell number change,AC50 [1],AC50 [2]
CC(C)C1CC(CCNCc2ccc(N(C)C)cc2)(c2ccccc2)CCO1 (centres undefined),-40.3%,"13 µM [falling, single point]","11.6 µM [falling, partial curve]"
COc1ccc(C)cc1NC(=O)Nc1ccc(C(=O)N2CCCC2)cc1,-4.99%,,"0.651 µM [falling, full curve]"
O=C(c1ccco1)n1nc(-c2ccco2)nc1SCc1ccccc1,15.7%,"0.731 µM [falling, full curve, poor fit]","5.17 µM [falling, single point]"
CCOC(=O)C1CCCN(CC(=O)NC2CC2)C1 (centres undefined),-9.58%,,"0.082 µM [falling, full curve]"
Cc1nnc(SCCC(C)C)[nH]c1=O,-1.99%,,"0.00461 µM [falling, full curve]"
CCCn1c(SCCN2C(=O)c3ccccc3C2=O)n[nH]c1=O,1.91%,,"0.731 µM [falling, single point]"
COc1ccc(/C=C(\C#N)C(=O)OCC(=O)NCc2ccco2)cc1,-6.16%,,"7.31 µM [falling, single point]"
Cc1cccc(OCC(=O)Nc2ccc(S(=O)(=O)Nc3onc(C)c3C)cc2)c1C,7.89%,,"0.1 µM [rising, full curve, poor fit]"
CC(=O)OCCNC(=O)c1cccnc1,-3.47%,,"6.51 µM [falling, single point]"
COc1ccc(-c2ccc(SCC(=O)NC3CCCCC3)nn2)cc1OC,-17.5%,,"9.2 µM [falling, single point]"
N#CCCN(Cc1cccnc1)C(=O)Nc1ccccc1,11.1%,,"1.46 µM [rising, full curve]"
Cc1ccc(NC(=O)CSCC(=O)Nc2cc(Cl)ccc2N2CCN(C)CC2)cc1,,,"32.6 µM [rising, single point]"
C=CCNC(=O)c1ccccc1NC(=O)c1ccccc1,41.6%,"0.82 µM [rising, full curve]",
Cc1ccccc1NC(=O)Cc1nc(COC(=O)c2cc([N+](=O)[O-])ccc2N)cs1,,,"0.58 µM [falling, single point]"
COc1ccc(S(=O)(=O)N2CC(=O)Nc3ccccc32)cc1F,-20.3%,,"6.51 µM [falling, single point]"
CC(C)CCN1CCN(CC#Cc2ccccc2)CC1CCO (centres undefined),25.3%,,"23.1 µM [rising, single point]"
CC1CCCCN1C(=O)CSc1nc2c(c(=O)n(C)c(=O)n2C)n1C (centres undefined),23.5%,,"5.8 µM [falling, full curve]"

# As entered above.
# cell number change with `CC(C)CCN1CCN(CC#Cc2ccccc2)CC1CCO` (centres undefined) is entered as 25.3%
# AC50 [2] with `Cc1ccccc1NC(=O)Cc1nc(COC(=O)c2cc([N+](=O)[O-])ccc2N)cs1` is entered as 0.58 µM [falling, single point]
